Our source for the binding values is article doi:10.1101/2023.05.25.542057 (bioRxiv, 2023).

What all share (assay): co-IP
Assay [1] deals with T1, Codanin1_(Cterm) S1036F-R1042W-D1043V (FWV), tagged, expressed in HEK293T (human) (UniProt Q8IWY9).
T1 sequence: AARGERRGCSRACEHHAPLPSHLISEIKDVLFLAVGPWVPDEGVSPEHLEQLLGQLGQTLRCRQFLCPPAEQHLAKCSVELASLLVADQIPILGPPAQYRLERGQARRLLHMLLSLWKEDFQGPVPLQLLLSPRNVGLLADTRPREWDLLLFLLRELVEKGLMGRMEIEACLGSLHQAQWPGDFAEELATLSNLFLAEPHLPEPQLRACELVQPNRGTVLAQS

Assay [2] concerns the target T2, Codanin1 full-length S1036F-R1042W-D1043V (FWV), tagged, expressed in HEK293T (human) (UniProt Q8IWY9).
T2 sequence: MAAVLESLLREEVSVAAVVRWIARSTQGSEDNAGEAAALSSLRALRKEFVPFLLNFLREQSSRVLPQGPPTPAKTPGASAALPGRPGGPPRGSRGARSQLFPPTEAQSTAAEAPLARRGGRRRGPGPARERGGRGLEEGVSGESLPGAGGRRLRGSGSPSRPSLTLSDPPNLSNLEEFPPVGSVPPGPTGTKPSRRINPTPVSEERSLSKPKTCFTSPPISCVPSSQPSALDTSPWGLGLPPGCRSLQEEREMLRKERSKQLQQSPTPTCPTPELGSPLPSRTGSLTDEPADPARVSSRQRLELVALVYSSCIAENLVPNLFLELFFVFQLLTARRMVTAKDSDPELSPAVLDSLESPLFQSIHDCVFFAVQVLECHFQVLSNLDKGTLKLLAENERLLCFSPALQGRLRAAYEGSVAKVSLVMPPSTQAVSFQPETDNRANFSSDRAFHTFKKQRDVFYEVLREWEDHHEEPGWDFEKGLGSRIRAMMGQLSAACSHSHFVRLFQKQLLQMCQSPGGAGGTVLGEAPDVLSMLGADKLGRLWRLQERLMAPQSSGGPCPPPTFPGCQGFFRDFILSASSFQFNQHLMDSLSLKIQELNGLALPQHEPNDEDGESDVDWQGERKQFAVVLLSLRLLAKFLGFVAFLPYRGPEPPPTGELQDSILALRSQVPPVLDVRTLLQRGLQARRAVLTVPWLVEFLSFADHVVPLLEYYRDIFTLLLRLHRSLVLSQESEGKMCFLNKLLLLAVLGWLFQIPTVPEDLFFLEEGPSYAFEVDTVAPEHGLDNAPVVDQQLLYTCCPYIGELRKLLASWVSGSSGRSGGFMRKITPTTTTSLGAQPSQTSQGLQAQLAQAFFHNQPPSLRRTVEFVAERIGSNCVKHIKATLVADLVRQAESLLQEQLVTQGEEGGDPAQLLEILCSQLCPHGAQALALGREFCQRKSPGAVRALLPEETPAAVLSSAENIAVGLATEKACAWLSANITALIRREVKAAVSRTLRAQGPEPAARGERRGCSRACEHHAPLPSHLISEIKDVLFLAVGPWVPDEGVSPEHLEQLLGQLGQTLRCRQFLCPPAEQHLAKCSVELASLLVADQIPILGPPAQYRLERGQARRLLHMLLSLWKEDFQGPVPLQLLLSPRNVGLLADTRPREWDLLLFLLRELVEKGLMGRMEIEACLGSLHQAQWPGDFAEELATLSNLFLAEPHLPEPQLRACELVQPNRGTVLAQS

Assay [3] concerns the target T3, Codanin1_(Cterm) wild type, Flag- or Myc-tagged, expressed in HEK293T (human) (UniProt Q8IWY9).
T3 sequence: T1 sequence with F32S, W38R, V39D

Assay [4] deals with T4, Codanin1 full-length wild type, Flag- or Myc-tagged, expressed in HEK293T (human) (UniProt Q8IWY9).
T4 sequence: T2 sequence with F1036S, W1042R, V1043D

Assay [5] concerns the target T5, Codanin1 full-length wild type, Flag- or Myc-tagged, expressed in HEK293T (human), Q8IWY9.
T5 chain: T2 sequence with F1036S, W1042R, V1043D
Particulars: remark: other sources report otherwise.

Positions count from the first letter of the chain named. Names may count otherwise. Results are given in words; binding and its absence hold for the method and conditions named. In cells and extracts the contact can be indirect. Some binding calls cover weakened binding; strength is not graded here. Where a sequence is shown, tags or fusion partners need not be part of it.

B1: CDAN1-interacting nuclease 1 (CDIN1), full-length, recombinant from bacteria (natural protein)
chain: MILTKAQYDEIAQCLVSVPPTRQSLRKLKQRFPSQSQATLLSIFSQEYQKHIKRTHAKHHTSEAIESYYQRYLNGVVKNGAAPVLLDLANEVDYAPSLMARLILERFLQEHEETPPSKSIINSMLRDPSQIPDGVLANQVYQCIVNDCCYGPLVDCIKHAIGHEHEVLLRDLLLEKNLSFLDEDQLRAKGYDKTPDFILQVPVAVEGHIIHWIESKASFGDECSHHAYLHDQFWSYWNRFGPGLVIYWYGFIQELDCNRERGILLKACFPTNIVTLCHSIA
Take B1: the binding entry in assay [1] is listed as “no binding”; in assay [2], “no binding”; in assay [3], “binds”; in assay [4] it was “binds”.

B2: CDIN1 L178Q, tagged, expressed in HEK293T (protein, UniProt Q9Y2V0 1-281)
chain: B1 chain with L178Q
B2: the binding result in assay [3] is given as “no binding”.

B3: CDIN1 C156Y, tagged, expressed in HEK293T (protein, UniProt Q9Y2V0 1-281)
chain: B1 chain with C156Y
Take B3: the binding entry in assay [3] and in assay [4] was “binds” throughout.

B4: CDIN1 Y94C, tagged, expressed in HEK293T (protein, UniProt Q9Y2V0 1-281)
chain: B1 chain with Y94C
As for B4, in assay [3], the binding entry is given as “no binding”.

B5: CDIN1 Y94S, tagged, expressed in HEK293T (protein, UniProt Q9Y2V0 1-281)
chain: B1 chain with Y94S
As for B5, the binding entry in assay [3] and in assay [4] was “no binding” throughout.

B6: CDIN1 L178Q, tagged, expressed in HEK293T, Q9Y2V0 1-281 (protein)
chain: B1 chain with L178Q
With B6, the binding result in assay [5] is listed as “no binding”.

B7: CDIN1 Y94C, tagged, expressed in HEK293T, Q9Y2V0 1-281 (protein)
chain: B1 chain with Y94C
For the molecule B7, the binding entry in assay [5] is “no binding”.

B8: CDIN1 Y94S-C156Y-L178Q (SYQ), tagged, expressed in HEK293T (protein, UniProt Q9Y2V0 1-281)
chain: B1 chain with Y94S, C156Y, L178Q
With B8, in assay [4], the binding result is “no binding”.

B9: CDIN1 Y94C-C156Y-L178Q (CYQ), tagged, expressed in HEK293T (protein, UniProt Q9Y2V0 1-281)
chain: B1 chain with Y94C, C156Y, L178Q
As for B9, the binding result in assay [4] is “no binding”.
